From the supplement of paper PMC7824004
The other results are listed elsewhere or left out. The data scatter; read single values as rough.

test system: Candida albicans SN425; test: biofilm OD600 B-score; higher = more biofilm (less inhibition); details: 10 µM; assay detail: High-throughput adherence inhibition optical density biofilm assay with C. albicans SN425 in RPMI-1640/MOPS pH 7.0, 384-well plates. …
Procedure: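 High-throughput adherence inhibition optical density biofilm assay with C. albicans SN425 in RPMI-1640/MOPS pH 7.0, 384-well plates. Compound (10 µM) was present only during the 90 min adherence step, then washed out, and the biofilm grew 24 h without compound. Biofilm was read as OD600 after removing the media. Scores are the difference from the mean in standard deviations and the plate B-score.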

SMILES	biofilm OD600 B-score
C=CCc1cccc(OC)c1OCCn1cnc2ccccc2c1=O	-3.03
O=C(c1cc2ccccc2o1)N1CCOCC1	0.478
CS(=O)(=O)NCCSc1ccccc1	-0.58
CCc1ccc(N(CC(=O)N2CCOCC2)S(C)(=O)=O)cc1	0.236
O=C(Nc1nc2ccccc2[nH]1)c1ccc2c(c1)OCO2	1.9
Cc1ccc(S(=O)(=O)N2CCOCC2)cc1C(=O)Nc1cccnc1	-2.83
Cc1cc(C)c2c(=O)[nH]c(SCC(N)=O)nc2n1	-1.27
CSc1ccc(S(=O)(=O)NCc2ccncc2)cc1	1.25
O=C(O)c1ccccc1SCC(=O)N1CCCCC1	-2.6
CC(C)(C)C(=O)Nc1cccc(C(=O)NN)c1	-0.0436
Cc1c(N)cc(N)cc1C(=O)O	-2.42
CC(NC(=O)COc1ccc(Cl)cc1)C(=O)O (stereo not given)	-0.0799
C=COCCNC(=O)Nc1cccc(Cl)c1	0.17
O=C(O)CCCC(=O)Nc1ccccc1Br	-0.982
O=C(Nc1ccccc1Cl)c1ncn[nH]1	-0.257
CCN1CCN(Cc2ccc(NC(C)=O)cc2)CC1	0.302
CN1CCCC1CCNC1CC2CCC1C2 (stereo not given)	-0.107
O=C(Nc1ccc(-c2nnc(-c3ccccc3)o2)cc1)c1ccco1	-0.301
Cc1ccc(C(=O)Nc2ccc(Cl)cc2F)o1	0.0144
CCC(NC(=O)Cc1ccccc1)C(=O)O (stereo not given)	-0.735

SMILES	biofilm OD600 B-score
CN(C)CCCC(=O)c1ccc2c(c1)OCO2	-2.18
Cc1onc(-c2ccccc2Cl)c1C(=O)NN	-2.61
OC1CCN(Cc2ccc(Br)cc2)CC1	-0.608
OC(COc1ccccc1)Cn1ccnc1 (stereo not given)	0.985
Cc1ccc(C)c(CN2CCCN(C)CC2)c1	2.01
O=C(NCc1ccccn1)NC1CCCCC1	4.13
COc1ccccc1NC(=O)CCN1CCCCCC1	-0.174
COc1cc(Cl)c(S(=O)(=O)NCc2cccnc2)cc1Cl	-2.15
Cc1ccc2nc(SCC(=O)NC(C)(C)C)[nH]c2c1	-1.55
Nc1ccc(Oc2ccc(N)c(N)c2)cc1	-7.16
COCC(=O)Nc1ccc(S(N)(=O)=O)cc1	-0.028
O=C(Nc1ccccc1)N1CCN(c2ccc([N+](=O)[O-])cc2)CC1	-4.4
CCC(=O)Nc1cc(C(=O)O)ccc1C	0.0158
NC1=C(N2CCCCC2)C(=O)c2ccccc2C1=O	1.2
NC(=O)C(Cc1ccccc1)N1CC(=O)NC(=O)C1 (stereo not given)	-3.76
O=C(CN1CCN(c2ccc(F)cc2)CC1)Nc1ccccn1	0.134
C/C=C(\C)CN1CCN(c2ccccc2F)CC1	-2.55
Cc1ccsc1C(=O)N1CCN(c2ccccn2)CC1	0.6
CCn1cc(CNC(=O)c2ccc(C)s2)cn1	-0.0876
Nc1ccccc1C(=O)NCCOc1ccccc1	-1.58

2 of these compounds in another layout:
SMILES,biofilm OD600 B-score
O=C(Nc1ccccc1)N1CCN(c2ccc([N+](=O)[O-])cc2)CC1,-4.4
CCC(=O)Nc1cc(C(=O)O)ccc1C,0.0158
